Assay results taken from PubChem BioAssay AID246 (DTP/NCI, 2004).
The list does not hold the whole screen: it gathers tests that were run many times, whatever their T/C, doses with no T/C, and many T/C values between a quarter and a half above the control. Other doses and runs of a compound stand elsewhere. T/C is the treated group as % of the vehicle group. Some entries give survivors of the animals treated and no T/C: the source files T/C as zero there, which appears to mark a toxic dose or a test without result, not a measured value. Some doses without a T/C left all or most animals alive at the check, yet need not have been tolerated: the source hardly ever lists a survival T/C far under the control, and the zero likely stands for such cases as well. Counts of survivors are from the toxicity check (mostly the fifth day) where no day follows; animals may have died later. Schedule codes are those of the source, taken here to give the interval after Q, in days (D) or hours (H), and the number of doses after X. Some schedules carry Z or #; the key to these is not given. For survival time, the PubChem record calls one and a half times the control and up active, and a quarter to a half above the control has no call in these data; cut-offs in other NCI protocols can differ.

Tested on: BDF1 mice, P1081 chloroleukemia ip, survival T/C
Experiment: NCI In Vivo Anticancer Drug Screen. Data for tumor model P1081 Chloroleukemia (intraperitoneal) in B6D2F1 (BDF1) mice
Settings: T/C endpoint: mean survival time, schedule: Q01DX Z (ip), vehicle: carboxymethylcellulose (CMC), higher T/C = longer survival
Procedure: The antitumor activity of compounds was measured in mice bearing transplantable tumors. Survival or tumor size were measured and the results are expressed as the measurement made in the treated group (T) divided by the measurement made in the vehicle treated control group (C). The tumor model used in this assay is P1081 Chloroleukemia (intraperitoneal) in B6D2F1 (BDF1) mice

SMILES | survivor count (dose: 8.0 mg/kg/injection) | survivor count (dose: 125.0 mg/kg/injection) | survivor count (dose: 250.0 mg/kg/injection) | survivor count (dose: 500.0 mg/kg/injection) | T/C (dose: 0.12 mg/kg/injection) | survivor count (dose: 0.5 mg/kg/injection) | survivor count (dose: 1.0 mg/kg/injection)
CN(C)c1nc(N(C)C)nc(N(C)C)n1 | 5 of 6 | 6 of 6 | 6 of 6 | 3 of 6 | – | – | –
NC(=O)c1cn(C2OC(CO)C(O)C2O)c2ncnc(N)c12 (configuration not stated) | – | – | – | – | 149 % of control | 6 of 6 | 3 of 6
